Experimental data published in PubChem BioAssay AID1347075 (National Center for Advancing Translational Sciences (NCATS), 2019).
Among all 400,000 compounds or so, about 5,500 (1.4%) were called active. The inconclusive results got no clear call from the source; some entries with a clear call stand among them for comparison. Calls follow the shape of the dose curve; as a rule, active = well fitted cell-killing curve with a large enough effect; inconclusive = small, poorly fitted or top-dose-only effect, or effect the other way; inactive = flat fitted curve, though single readings scatter. Potencies beside an inconclusive call are fits to weak or partial responses and may not hold up.

Assay: qHTS assay for MDR1-selective chemotherapeutics: Primary screen using the parental adenocarcinoma cell KB-3-1; also: nearly all actives have a fitted effect of over 60% in size
Details: KB-3-1 viability, CellTiter-Glo ATP luminescence, 72 h; activity change, negative = cytotoxic: at 46.1 µM (top of the series)
Procedure, shortened: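 Viability of parental KB-3-1 cells, measured by CellTiter-Glo luminescence, followed a 72 h incubation at 37 °C with pinned compounds in phenol-red-free DMEM containing 10% FBS.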
% is scaled to controls: 0 for no effect and ±100 for the full control effect; potency is read from the fitted curve at half-maximal effect.

| SMILES | Potency | activity change, negative = cytotoxic |
| --- | --- | --- |
| CCn1c2ccccc2c2cc(NC(=O)COc3ccccc3OC)ccc21 | active: 4.61 µM | – |
| COc1ccc(CCN2C(=O)c3ccccc3C2c2nnnn2C(C)C)cc1OC (stereo unspecified) | inactive | – |
| Cc1cc(C)[n+](C)n1CC(O)Cn1c2ccccc2c2ccccc21 (stereo unspecified) | inconclusive: 29.1 µM [cytotoxic, single point] | – |
| O=C(c1ccco1)N1CCN(c2nnc(-c3ccccc3)c3ccccc23)CC1 | inactive | – |
| Cc1cc(C)cc(C(=O)OCC(=O)NCc2cccs2)c1 | inconclusive: 29.1 µM [cytotoxic, single point] | – |
| CCOC(=O)c1c(-c2ccc(Br)cc2)csc1NC(=O)c1ccc(F)cc1 | inconclusive: 29.1 µM [rising, single point] | – |
| CSc1nc(N(C)NC(=O)c2cccc(C)c2)c2ccccc2n1 | active: 0.184 µM | – |
| COc1ccc(-c2ccc(CN3C(CC(C)C)C(=O)N(Cc4cn(CC5CCCCC5)nn4)CCS3(=O)=O)cc2)cn1 (stereo unspecified) | inconclusive: 29.1 µM [cytotoxic, single point] | – |
| CCCCCc1c(-c2ccccc2)ncn1CCc1ccccc1OC | inconclusive: 23.1 µM [cytotoxic, single point] | – |
| O=C(Nc1cc(-c2nc3ccccc3o2)ccc1Cl)c1ccc(N2CCCCC2)c([N+](=O)[O-])c1 | inactive | – |
| CCCCOc1ccc(C(=O)NCC(=O)NCc2ccccn2)cc1 | active: 0.517 µM | – |
| CCOc1ccc(Nc2oc(-c3ccc(Cl)cc3)nc2C#N)cc1 | inconclusive: 18.4 µM [cytotoxic, partial curve] | – |
| NS(=O)(=O)c1ccc(N/N=C/c2cn(-c3ccccc3)nc2-c2cccs2)c([N+](=O)[O-])c1 | inconclusive: 18.4 µM [rising, partial curve, poor fit] | – |
| Cc1cc2c(N=O)c(NO)ccc2[nH]1 | inconclusive: 18.4 µM [cytotoxic, single point] | – |
| CN(C(=O)c1cc2nc(-c3ccco3)cc(C(F)(F)F)n2n1)c1ccc(OC(F)(F)Cl)cc1 | inactive | – |
| O=C(CCS(=O)(=O)c1cc(Br)cc2c1N(C(=O)C1CC1)CC2)NCc1ccc(Cl)cc1 | inactive | – |
| Cc1c2c(cc3c1[nH]c1ccccc13)C=NCC2 | inconclusive: 16.4 µM [cytotoxic, single point] | – |
| CCOC(=O)C(C)Oc1cccc2c(=O)n(CC(=O)NCc3ccccc3)ccc12 (stereo unspecified) | active: 1.16 µM | – |
| COc1ccc(S(=O)(=O)N2CCOCC2)cc1NC(=O)Cc1cccs1 | inconclusive: 0.411 µM [rising, full curve] | – |
| COc1ccc(CCN2CCC(Nc3nc4ccccc4n3Cc3ccc(F)cc3)CC2)cc1 | inconclusive: 29.1 µM [cytotoxic, single point] | – |
| CC1=Nc2cc(C(=O)NCC3CCCO3)ccc2Sc2ccc(Br)cc21 (stereo unspecified) | active: 11.6 µM | – |
| C[C@@H]([C@@H](O)c1ccccc1)N(C)C(=O)C(N)Cc1ccccc1 (stereo partly specified) | inactive | – |
| CN(C)c1ccc(/C=C/c2ccnc3ccccc23)c(N)c1 | inconclusive: 0.651 µM [cytotoxic, full curve, poor fit] | – |
| Cc1ccc(-c2nc(SCCOc3ccccc3C)n3[nH]c(=O)cc3n2)cc1 | inconclusive: 25.9 µM [cytotoxic, single point] | – |

| SMILES | Potency | activity change, negative = cytotoxic |
| --- | --- | --- |
| CC(=O)Nc1cc(OC(C)=O)c2nonc2c1OC(C)=O | inconclusive: 18.4 µM [cytotoxic, single point] | – |
| CN(C)C(=O)c1ccc(NC(=O)c2cccc(S(=O)(=O)N3CCCCCC3)c2)cc1 | inactive | – |
| COc1ccc(Cl)cc1NC(=O)c1cccc([N+](=O)[O-])c1O | active: 11.6 µM | – |
| C/C(=N\NC(=S)NC(C)C)c1ccc2c(c1)OCCO2 | inconclusive: 29.1 µM [cytotoxic, single point] | – |
| Cc1noc(C)c1COc1cccc(C(=O)Nc2ccc(Br)cc2F)c1 | active: 6.51 µM | – |
| Nc1nc(Nc2ccccc2)nc(N2CCCC2)c1[N+](=O)[O-] | inconclusive: 29.1 µM [cytotoxic, single point] | – |
| CC(=O)c1cccc(OCc2cc(C(=O)N3CCC(N4CCCCC4)CC3)no2)c1 | inactive | – |
| O=C(NCCCn1ccnc1)c1ccc2ccccc2c1 | inactive | – |
| O=c1c2oc3ccccc3c2n(Cc2ccc(Cl)cc2)c(=O)n1Cc1ccco1 | inactive | – |
| CCC(NC(=O)c1cc(COc2cncc(Cl)c2)on1)c1ccncc1 (stereo unspecified) | inactive | – |
| O=C(CC[C@H]1O[C@@H](n2ccc(=O)[nH]c2=O)[C@H](O)[C@@H]1O)N[C@H](Cc1ccccc1)C(=O)NC1CCCCC1 | inactive | – |
| COc1ccc(S(=O)(=O)NC(=O)C2(C)CCN2C(=O)Cc2cc(F)ccc2F)cc1 (stereo unspecified) | inactive | – |
| CCN(C(=O)C1CCC(CNS(=O)(=O)c2cccc3nsnc23)CC1)c1ccc(C)c(C)c1 (stereo unspecified) | inconclusive: 23.1 µM [cytotoxic, partial curve, poor fit] | – |
| Cc1ccc(C(=O)NNC(=O)c2cccc(C)c2)cc1 | inconclusive: 25.9 µM [rising, partial curve, poor fit] | – |
| Cc1cccc(CN2CCC(CNC(=O)c3c(C)oc4ncnc(N5CCCCC5)c34)CC2)c1 | inactive | – |
| FC(F)(F)c1cccc(Oc2cc(C(F)(F)F)nc(-c3ccccn3)n2)c1 | inactive | – |
| Cc1cc(C)n2nc(CNS(=O)(=O)c3cccc([N+](=O)[O-])c3)nc2n1 | inactive | – |
| CC(C)CCn1c(Oc2ccccc2Cl)nc2c1c(=O)n(C)c(=O)n2C | inactive | – |
| CCS(=O)(=O)c1nc(S(=O)(=O)c2ccc(Cl)cc2)c(NCCCN2CCOCC2)s1 | inactive | – |
| COc1ccccc1NC1CCCCC1NS(=O)(=O)c1ccc(C)cc1 (stereo unspecified) | inconclusive: 18.4 µM [cytotoxic, single point] | – |
| O=c1oc2ccccc2n1CSC1=NCCS1 | inconclusive: 25.9 µM [cytotoxic, single point] | – |
| C=CCn1c(NC(=O)c2ccc(C)cc2)c(C#N)sc1=N | active: 5.17 µM | – |
| COc1ccc(CNC(=O)c2ccc(N3CCCC3)c(NC(=O)NCc3ccc(C)cc3)c2)cc1 | inconclusive: 7.31 µM [cytotoxic, partial curve, poor fit] | – |
| O=S(=O)(c1ccc(Cl)cc1)N1CCC(c2nc3ccccc3[nH]2)CC1 | inconclusive: 5.8 µM [cytotoxic, full curve, poor fit] | – |

Two entries drawn at random from the list so far:

| SMILES | Potency | activity change, negative = cytotoxic |
| --- | --- | --- |
| CN(C(=O)c1cc2nc(-c3ccco3)cc(C(F)(F)F)n2n1)c1ccc(OC(F)(F)Cl)cc1 | inactive | – |
| C=CCn1c(NC(=O)c2ccc(C)cc2)c(C#N)sc1=N | active: 5.17 µM | – |

Part of the list above, field by field.
CC(C)CCn1c(Oc2ccccc2Cl)nc2c1c(=O)n(C)c(=O)n2C
  Potency: inactive
CCS(=O)(=O)c1nc(S(=O)(=O)c2ccc(Cl)cc2)c(NCCCN2CCOCC2)s1
  Potency: inactive

Carrying on.

| SMILES | Potency | activity change, negative = cytotoxic |
| --- | --- | --- |
| CC(=O)c1ccc(OCCCC(=O)Nc2cccc(S(=O)(=O)N(C)C)c2)cc1 | inconclusive: 29.1 µM [cytotoxic, single point] | – |
| NCC1OC(n2cnc3c(N)ncnc32)CC1O (stereo unspecified) | inconclusive: 20.6 µM [rising, partial curve, poor fit] | – |
| Cc1nc2ccccc2n1Cc1ccc(Br)cc1 | inconclusive: 2.59 µM [cytotoxic, full curve] | – |
| N#Cc1c(-c2ccccc2)c(-c2ccccc2)nn(CC(=O)NNC(=O)Nc2ccc(Cl)c(Cl)c2)c1=O | inconclusive: 29.1 µM [cytotoxic, single point] | – |
| CN(/N=C/c1cc([N+](=O)[O-])ccc1O)c1ccccc1 | inconclusive: 16.4 µM [cytotoxic, partial curve, poor fit] | – |
| N#Cc1c(N)n(CCNC(=O)c2ccccc2)c2nc3ccccc3nc12 | inconclusive: 5.8 µM [rising, partial curve] | – |
| O=C(Nc1cccc(S(=O)(=O)N2CCCC2)c1)c1ccc2ccccc2n1 | inconclusive: 29.1 µM [cytotoxic, single point] | – |
| COc1ccc(CCNC(=O)c2ccc3c(c2)N(Cc2c(F)cccc2Cl)C(=O)CS3)cc1OC | inactive | – |
| COc1cccc(Cn2cc(/C=N/NC(=O)c3cc(O)cc(O)c3)c3ccccc32)c1 | inconclusive: 1.64 µM [cytotoxic, partial curve, poor fit] | – |
| CCCCn1c(-c2csc3c2CCC(C)C3)n[nH]c1=S (stereo unspecified) | active: 20.6 µM | – |
| O=c1c2ccc(Cl)cc2nc(-c2ccc([N+](=O)[O-])cc2)n1O | inconclusive: 20.6 µM [cytotoxic, single point] | – |
| CC(=NNC(=S)N1CCCCCC1)c1cccc2cccnc12 | inconclusive: 16.4 µM [cytotoxic, single point] | – |
| COc1ccc(NC(=O)C(C)n2nc(-c3ccc(C)c(C)c3)ccc2=O)cc1OC (stereo unspecified) | inactive | – |
| Cc1ccc(F)cc1NC(=O)CCNC(=O)c1ccc([N+](=O)[O-])cc1 | – | inconclusive: 20.5% |
| COc1cc(OC)c(OC)cc1/C=C/c1nc2cc3ccccc3cc2c(=O)n1-c1ccc(F)cc1F | active: 11.6 µM | – |
| Cc1ccc2c(c1)-c1cc(C)nn1C(c1cc(Br)ccc1O)N2 (stereo unspecified) | inconclusive: 29.1 µM [rising, single point] | – |
| C=CCOc1ccc(C(c2c(C)n(C)n(-c3ccccc3)c2=O)c2c(C)n(C)n(-c3ccccc3)c2=O)cc1 | inconclusive: 0.651 µM [rising, full curve] | – |
| COc1ccc(OC)c(S(=O)(=O)NCC(=O)NC2CCCc3ccccc32)c1 (stereo unspecified) | inactive | – |
| Cc1ccc2ncc(C(=O)Nc3ccc(F)cc3F)c(=O)n2c1 | inactive | – |
| CC(C)C(N)c1csc(NC(=O)Nc2cccc(Cl)c2)n1 (stereo unspecified) | inactive | – |
| O=C(C1CC(=O)N(c2ccc3c(c2)OCCO3)C1)N1CCN(c2cccc(C(F)(F)F)c2)CC1 (stereo unspecified) | inconclusive: 16.4 µM [cytotoxic, partial curve] | – |
| CCC(C)N1C(=O)S/C(=C/c2ccc(Sc3nc4ccccc4[nH]3)o2)C1=O (stereo unspecified) | inconclusive: 18.4 µM [cytotoxic, single point] | – |
| CCOC(=O)[C@H]1[C@H]2COc3ccc(C)cc3[C@@H]2N2C(=O)c3cc(Cl)ccc3NC(=O)[C@@]12C | inconclusive: 29.1 µM [cytotoxic, single point] | – |
